Source: PubChem BioAssay AID493014 (National Center for Advancing Translational Sciences (NCATS), 2011)
This is one part of the list. These are further read-outs of the screen, such as a control signal, another cell line or another target. No call is given for them. Most of these compounds were active or inconclusive in the main read-out, so they are no random draw. Words in brackets tell the shape of the fitted curve; partial curves, single points and poor fits give uncertain potencies.

Test: qHTS Assay to Find Inhibitors of Chronic Active B-Cell Receptor Signaling
Details: ABC-DLBCL IkBa-CBG/CBR reporter, luminescence ratio (green luciferase fused to IkBa over red control in TMD8 lymphoma cells), 4 h
Outline: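 Doxycycline induced both beetle luciferases in TMD8 lymphoma cells; IKK-driven degradation limits the IkappaBalpha-fused green signal, while red luminescence normalises for cell number and nonspecific effects. Compounds tested up to 46 uM, 4 hrs.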

[1] = measured here: CBR red luminescence, cell number
[2] = measured here: IkBa-CBG green luminescence

| Compound | AC50 [1] | AC50 [2] |
| --- | --- | --- |
| O=C(CCc1ccccc1)NC(NC(=S)Nc1ccc(Br)cc1)C(Cl)(Cl)Cl (centres undefined) | 29.1 µM [rising, single point] | – |
| Cc1onc(-c2c(F)cccc2Cl)c1C(=O)OCC(=O)c1c[nH]c2ccccc12 | 35.5 µM [falling, single point] | – |
| O=C(/C=C/c1cccc([N+](=O)[O-])c1)N1CCOCC1 | 29.1 µM [rising, single point] | – |
| COC(=O)c1c(NC(=O)CCCC(=O)O)sc2c1CCCCC2 | 11.2 µM [falling, single point] | – |
| OCC1(Cc2ccc(F)cc2)CCCN(CCc2ccccc2)C1 (centres undefined) | 17.8 µM [rising, partial curve, poor fit] | – |
| Cc1cc(C(=O)COC(=O)CCC(=O)c2ccc3c(c2)OCCO3)c(C)n1Cc1ccco1 | 8.2 µM [rising, partial curve] | – |
| CCOC(=O)c1c(C=O)c(C)n(Cc2ccccc2Cl)c1C | 32.6 µM [falling, single point] | – |
| O=c1cc(CNc2ccc(Br)cc2)nc2sccn12 | 0.82 µM [rising, full curve] | – |
| COc1cccc(N2C(=O)CC(N3CCN(C(=O)c4ccco4)CC3)C2=O)c1 (centres undefined) | 29.1 µM [rising, single point] | – |
| COc1ccc(S(=O)(=O)N2CCOCC2)cc1NC(=O)COC(=O)C1=COCCO1 | 25.1 µM [falling, single point] | – |
| CC(C)CNC(=S)N1CCC(NC(=O)c2ccco2)CC1 | 35.5 µM [rising, single point] | – |
| CCCC[n+]1ccn(C2=C([O-])c3ccccc3C(=O)/C2=N\S(=O)(=O)c2ccccc2)c1 | 35.5 µM [falling, single point] | 17.8 µM [rising, partial curve, poor fit] |
| Cc1ccccc1NC(=O)Cc1cn(C)c2ccccc12 | 7.31 µM [falling, partial curve, poor fit] | – |
| O=c1c2ccccc2c(=O)n(Cc2ccccc2)n1Cc1ccccc1 | 5.17 µM [falling, partial curve] | – |
| CCn1c(SCC(=O)Nc2nc(C)cs2)nnc1-c1ccncc1 | 0.112 µM [falling, full curve, poor fit] | – |
| Cc1cc(=O)oc2cc(OCC(=O)Nc3ccccc3C(=O)O)ccc12 | 2.82 µM [falling, full curve] | – |

| Compound | AC50 [1] | AC50 [2] |
| --- | --- | --- |
| COC(=O)c1cc2occc2n1Cc1c(F)cccc1Cl | 17.8 µM [rising, partial curve, poor fit] | – |
| O=C(CSc1nnnn1-c1ccccc1)NC(=O)NCc1ccco1 | 4.61 µM [falling, single point] | – |
| O=c1c2c(nc3cc(-c4ccc(Cl)cc4)[nH]n13)CCS2 | 0.461 µM [falling, full curve] | – |
| Cc1ccc(-c2c3c(=O)n(C)c(=O)n(C)c3cn2-n2cnnc2)cc1 | 25.1 µM [falling, single point] | – |
| NNC(=O)C1CC(O)CN1S(=O)(=O)c1ccc2ccccc2c1 (centres undefined) | 25.9 µM [rising, single point] | – |
| O=C(CCn1c(=S)[nH]c2ccccc2c1=O)N1CCCCC1 | 31.6 µM [rising, single point] | – |
| CN(C)S(=O)(=O)c1ccc(NC(=O)CN2CCN(c3ccccn3)CC2)cc1 | 3.98 µM [falling, single point] | – |
| COCCNC(=S)N/N=C(\C)c1ccc(OC(F)F)cc1 | – | 31.6 µM [falling, single point] |
| Cc1cccc(OCC(=O)N2CCCc3ccccc32)c1 | 0.251 µM [rising, full curve, poor fit] | – |
| Cc1cc(N(C)C)c(C#N)c(NCc2ccccc2)n1 | 8.91 µM [rising, partial curve] | – |
| CCCOc1ccc2c(CC)cc(=O)oc2c1C | 8.2 µM [rising, partial curve, poor fit] | 3.26 µM [falling, partial curve, poor fit] |
| CCN1CCN(c2cc(C)c3cc(NC(=O)Cc4ccc(OC)c(OC)c4)ccc3n2)CC1 | 13 µM [rising, partial curve, poor fit] | – |
| O=C(N/N=C/c1ccc(Br)s1)c1ccccn1 | 8.2 µM [falling, partial curve] | – |
| Cc1cc(-c2ccccc2)nc(N/N=C/c2cccnc2)n1 | 1.58 µM [falling, partial curve, poor fit] | – |
| COc1ccc2nc(-c3ccccc3)cc(C(=O)N3CCC3)c2c1 | 0.731 µM [rising, partial curve, poor fit] | – |
| O=C(/C=C/c1ccc(F)cc1)N1CCN(c2ccccn2)CC1 | 3.26 µM [rising, single point] | – |

2 entries from above in another layout.
Compound,AC50 [1],AC50 [2]
Cc1ccc(-c2c3c(=O)n(C)c(=O)n(C)c3cn2-n2cnnc2)cc1,"25.1 µM [falling, single point]",–
CCCOc1ccc2c(CC)cc(=O)oc2c1C,"8.2 µM [rising, partial curve, poor fit]","3.26 µM [falling, partial curve, poor fit]"
